Measured values taken from US9687453B2, “Solid pharmaceutical composition” (KYORIN PHARMACEUTICAL CO., LTD., priority 2013, dated 2017).
Some entries share one result that the patent states for a list of compounds.

experiment: pH of acidic substance (2.5% liquid in water, pH meter); assay type: physicochemical; conditions: 50 mg in 1,950 μL of water (concentration 2.5%)
Method: The “acidic substance” described herein is a substance which is dissolved in water to generate hydrogen ions.

pH, ≤ 3.5:
O=C(O)CCCCC(=O)O [adipic acid]
O=C(O)C(O)C(O)C(=O)O (stereo not shown) [tartaric acid]
N[C@@H](CC(=O)O)C(=O)O [L-aspartic acid]
O=C(O)CC(O)(CC(=O)O)C(=O)O [citric acid]
